Measured data: PubChem BioAssay AID1259308 (NCATS, 2017)

- Aim: 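Genes whose loss raises luciferase production in HEK293 cells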 (primary screen)
- Cells: human HEK293 embryonic kidney cells stably expressing firefly luciferase (HEK-CMV-Luc2-Hygro)
- Reagent: single siRNA against human genes, 0.8 pmol siRNA per well
- Time to read-out: 72 h
- Measurement: 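Luciferase light (ONE-Glo) measured on one replicate plate set and viability (CellTiter-Glo) on the other, scaled to a negative control siRNA, with robust z-scores and luciferase per cell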
- Direction: total luciferase, z-score and total luciferase, % of control: higher = more reporter protein produced; luciferase per cell, z-score: higher = more reporter output per viable cell; viable cells, % of control: higher = more viable cells
- Hit rule: 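An siRNA counts as active if its total luciferase robust z-score exceeds 3; genes with two or more such siRNAs out of three were retested with fresh siRNAs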
- Calls: active = raised luciferase; inactive = no rise
This is an unselected part of about 59,000 deposited reagents. About 1,510 of them (2.6%) were called active. 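Calls use total luciferase alone and ignore viability, so some active siRNAs may act by altering cell number.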 The numbers tell different reagents against one gene apart. No sequences are given here.

The first 3 records, to show the layout:
no.	gene	siRNA no.	total luciferase, z-score	total luciferase, % of control	luciferase per cell, z-score	viable cells, % of control	Call
1	SPOCK1	1	-0.0504	80.9	0.147	86.9	inactive
2	SPOCK1	2	-0.127	79.4	-0.296	95.9	inactive
3	SPOCK1	3	-0.896	64.1	-1.28	100	inactive

Results, from the first entry:
no.	gene	siRNA no.	total luciferase, z-score	total luciferase, % of control	luciferase per cell, z-score	viable cells, % of control	Call
1	SPOCK1	1	-0.0504	80.9	0.147	86.9	inactive
2	SPOCK1	2	-0.127	79.4	-0.296	95.9	inactive
3	SPOCK1	3	-0.896	64.1	-1.28	100	inactive
4	PCDH17	1	0.803	97.9	1.3	77.6	inactive
5	PCDH17	2	-0.0571	80.8	0.119	87.5	inactive
6	PCDH17	3	-0.688	68.2	0.0237	75.7	inactive
7	DACH2	1	1.42	110	0.867	97.9	inactive
8	DACH2	2	2.24	126	2.27	77.8	inactive
9	DACH2	3	0.0528	82.9	-0.2	97.7	inactive
10	SEMA3G	1	-0.736	67.3	-0.254	80.4	inactive
11	SEMA3G	2	0.489	91.6	0.836	82.2	inactive
12	SEMA3G	3	1.13	104	0.607	99.5	inactive
13	IWS1	1	1.26	107	2.23	66.4	inactive
14	IWS1	2	-0.598	70	-0.464	88.4	inactive
15	IWS1	3	-0.905	63.9	-0.716	86.2	inactive
16	OPA1	1	-0.957	62.9	-0.803	86.8	inactive
17	OPA1	2	1.01	102	1.15	84	inactive
18	OPA1	3	-0.505	71.8	-0.669	95.7	inactive
19	AGPAT5	1	-0.563	70.7	-1.03	104	inactive
20	AGPAT5	2	-0.972	62.6	-1.49	103	inactive
21	AGPAT5	3	2.36	129	2.11	82.7	inactive
22	DEFB114	1	0.358	89	0.448	88.4	inactive
23	DEFB114	2	0.812	98	1.51	73.5	inactive
24	DEFB114	3	2.55	133	1.35	104	inactive
25	MAN1C1	1	-0.615	69.7	-0.887	98.3	inactive
26	MAN1C1	2	-0.62	69.6	-0.0952	79.7	inactive
27	MAN1C1	3	5.62	194	4.42	67.6	active
28	IL36A	1	-0.464	72.7	-0.417	90.6	inactive
29	IL36A	2	-0.594	70.1	-0.555	90.6	inactive
30	IL36A	3	-2.42	33.8	-3.55	96.4	inactive
31	SMOC1	1	-0.101	79.9	-0.363	98.2	inactive
32	SMOC1	2	-0.403	73.9	0.103	80.3	inactive
33	SMOC1	3	0.258	87	0.586	83.3	inactive
34	SFTA2	1	1.4	110	0.703	102	inactive
35	SFTA2	2	-0.299	75.9	-0.577	98.8	inactive
36	SFTA2	3	0.116	84.2	1.02	71.9	inactive
37	CCS	1	0.00694	82	-0.29	98.9	inactive
38	CCS	2	-0.258	76.8	-0.435	96.2	inactive
39	CCS	3	-0.835	65.3	0.346	66.6	inactive
